Measured values taken from patent publication US20220098328A1, “ANTIBODIES TO M(H)DM2/4 AND THEIR USE IN DIAGNOSING AND TREATING CANCER” (NomoCan Pharmaceuticals LLC, priority 2017, published 2022).
No constants are given. Whether binding was seen depends on the method and setting. Some entries that bind do so weakly or less than the wild type.

Sequences of proteins named here, by UniProt entry; tags and fusion partners are left off. A change or cut given only in a name is not applied to a line headed by its entry.
UniProt P23804: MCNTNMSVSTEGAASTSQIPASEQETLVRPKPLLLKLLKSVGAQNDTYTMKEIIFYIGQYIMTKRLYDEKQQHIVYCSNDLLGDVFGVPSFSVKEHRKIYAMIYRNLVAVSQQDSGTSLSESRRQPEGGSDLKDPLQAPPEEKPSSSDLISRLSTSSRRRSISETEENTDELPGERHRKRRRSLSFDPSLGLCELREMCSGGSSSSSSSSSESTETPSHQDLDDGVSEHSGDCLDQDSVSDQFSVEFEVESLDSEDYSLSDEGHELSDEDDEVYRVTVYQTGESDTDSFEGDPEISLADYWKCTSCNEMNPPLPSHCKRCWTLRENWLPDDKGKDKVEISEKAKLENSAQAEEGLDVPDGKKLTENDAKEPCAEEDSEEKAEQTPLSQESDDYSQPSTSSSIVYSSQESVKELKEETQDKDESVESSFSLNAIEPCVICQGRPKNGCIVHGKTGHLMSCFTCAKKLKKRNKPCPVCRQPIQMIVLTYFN
UniProt Q00987: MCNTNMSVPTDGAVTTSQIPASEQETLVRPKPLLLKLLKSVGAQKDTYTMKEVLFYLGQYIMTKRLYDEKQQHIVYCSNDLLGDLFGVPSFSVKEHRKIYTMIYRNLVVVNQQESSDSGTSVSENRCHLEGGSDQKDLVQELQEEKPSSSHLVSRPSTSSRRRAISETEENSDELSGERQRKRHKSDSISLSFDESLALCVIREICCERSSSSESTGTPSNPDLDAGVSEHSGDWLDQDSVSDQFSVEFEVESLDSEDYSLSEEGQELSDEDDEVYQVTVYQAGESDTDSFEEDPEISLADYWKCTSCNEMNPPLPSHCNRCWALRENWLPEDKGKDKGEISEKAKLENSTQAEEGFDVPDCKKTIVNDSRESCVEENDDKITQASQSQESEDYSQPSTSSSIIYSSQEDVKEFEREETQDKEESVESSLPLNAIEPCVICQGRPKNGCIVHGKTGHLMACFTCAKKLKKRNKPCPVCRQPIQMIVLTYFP

Columns and labels:
[1] = target: MDM2 on the plasma membrane of intact mouse cancer cells (mouse) (UniProt P23804); experiment: cell-based ELISA, LL/2
[2] = target: MDM2 on the plasma membrane of intact mouse cancer cells (mouse) (UniProt P23804); experiment: cell-based ELISA, LL/2, 5 µg/mL
[3] = target: HDM2 on the plasma membrane of intact human cancer cells (human) (UniProt Q00987); experiment: cell-based ELISA, human cancer cells
[4] = target: MDM2 on the plasma membrane of intact mouse cancer cells (mouse) (UniProt P23804); experiment: cell-based ELISA, murine cancer cells
[5] = target: MDM2 on the plasma membrane of intact mouse cancer cells (mouse) (UniProt P23804); experiment: cell-based ELISA, rodent cancer cells
[6] = target: MDM2 on the plasma membrane of intact mouse cancer cells (mouse) (UniProt P23804); experiment: flow cytometry on cells of excised M109 tumors
[7] = target: MDM2 on the plasma membrane of intact mouse cancer cells (mouse) (UniProt P23804); experiment: cell-based ELISA, 5 µg/mL; MC-38 and Panc-2 cells
[8] = target: HDM2 on the plasma membrane of intact human cancer cells (human) (UniProt Q00987); experiment: flow cytometry on live (7AAD negative) OVCAR-3 cells
[9] = target: MDM2 on the plasma membrane of intact mouse cancer cells (mouse) (UniProt P23804); experiment: cell-based ELISA and flow cytometry on live LL/2 cells
[10] = target: MDM2 on the plasma membrane of intact mouse cancer cells (mouse) (UniProt P23804); experiment: flow cytometry on live (7AAD negative) LL/2 cells, 1 µg/ml
[11] = target: HDM2 on the plasma membrane of intact human cancer cells (human) (UniProt Q00987); experiment: flow cytometry on live (7AAD negative) OVCAR-3 cells, 1 µg/ml
[12] = target: HDM2 on the plasma membrane of intact human cancer cells (human) (UniProt Q00987); experiment: cell-based ELISA, 5 µg/mL; A2085, MCF-7, MIAPaCa-2, HeLa, OVCA-4, OVCAR-3 cells
[13] = target: MDM2 on the plasma membrane of intact mouse cancer cells (mouse) (UniProt P23804); experiment: cell-based ELISA on intact LL/2 cells
[14] = target: MDM2 on the plasma membrane of intact mouse cancer cells (mouse) (UniProt P23804); experiment: flow cytometry on live (7AAD negative) LL/2 cells

Measured: binding

B1: humanized monoclonal antibody NMC-H103 (VH4/VK3) (antibody, V domains shown)
VH: EVQLVESGGGLVQPGPSLRLSCTTSGFTFTHYYMSWVRQAPGKGLEWLGFIRNKAKGYTAEYSASVKGRFTISRDNSKSTLYLQMNSLRAEDTAVYYCARDIGDNWGQGTLVTVSS
VL: DIVMTQTPLSSPVTLGQPASISCRSSKNLLHSNGITYLYWYLQKPGQSPQLLISRVSNLASGVPDRFSGSESGTDFTLKISRVEAEDVGVYFCAQLLELPYTFGGGTKVEIK
not listed: [13] | [14]
binds: all other assays above

B2: chimeric monoclonal antibody NMC-C303 (antibody, human IgG1, kappa, V domains shown)
VH: QVQLQQPGAELVKPGASVKLSCKASGYTFTSYYMYWVKQRPGQGLEWIGGINPRNGGTNFNEKFKNKATLTADKSSTTAYMQLSSLTSEDSAVYYCTRSGYYAMDYWGQGTSVTVSS
VL: DIQMTQTTSSLSASLGDRVTISCRASQDISNFLNWYQQKPDGTVKLLIYYTSRLHSGVPSRFSGSGSGTDYSLTISNLEQEDIATYFCQQGNTLPRTFGGGTKLEIKR
not listed: [6] | [9]
binds: all other assays above
